{"source": "PubChem BioAssay AID493014", "about": "(National Center for Advancing Translational Sciences (NCATS), 2011)", "note": "Hit rate of the full screen: of about 340,000 compounds, about 170 (0.05%) were called active. The inconclusive results got no clear call from the source; some entries with a clear call stand among them for comparison. Calls come from the whole dose curve; as a rule, active = well fitted inhibition curve with a large enough effect in the signal ratio, with a control signal flat (not every such curve was filed as active); inconclusive = small, poorly fitted or top-dose-only effect, or effect the other way, or a change in a side signal; inactive = flat fitted curve, though single readings scatter; the % refers to the signal ratio. Potencies of inconclusive entries are doubtful fits and often do not repeat. Potency is the fitted concentration of half-maximal effect.", "data": [{"test": "qHTS Assay to Find Inhibitors of Chronic Active B-Cell Receptor Signaling;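 for activity change, negative = inhibition: plate controls were basal doxycycline-induced cells for no effect and cells given 10 µM MG132 for full effect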", "conditions": "ABC-DLBCL IkBa-CBG/CBR reporter, luminescence ratio (green luciferase fused to IkBa over red control in TMD8 lymphoma cells), 4 h; activity change, negative = inhibition: at 46.1 µM (top of the series)", "in_short": "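Cell line TMD8 (human ABC DLBCL), stably expressing tet-inducible CBG68-IkBa fusion and CBR; IMDM/0.5% FBS; cpd up to 46 uM; dox induction, 4 h, 37C/5% CO2; dual luminescence; green/red ratio; MG132 control.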", "values": [{"smiles": "COc1ccccc1CNS(=O)(=O)c1ccc2c(c1)N(C(C)=O)CCO2", "activity change, negative = inhibition": "inconclusive: -13.6%"}, {"smiles": "CC(C)CCC(CCN1CCOCC1)c1ccc2c(c1)OCO2", "note": "(stereo not drawn)", "activity change, negative = inhibition": "inactive"}, {"smiles": "O=C(Nc1ccc(N2CCOCC2)c(Cl)c1)c1cc2ccccc2o1", "Potency": "inconclusive: 29.1 µM [falling, single point]"}, {"smiles": "O=Cc1ccc(-c2ccccc2OC(F)(F)F)o1", "activity change, negative = inhibition": "inconclusive: -18.7%"}, {"smiles": "Cc1ccnc(NC(=O)c2ccc(S(=O)(=O)c3ccccc3)cc2)c1", "activity change, negative = inhibition": "inconclusive: 2.82%"}, {"smiles": "Cc1cccc(N2CCN(S(=O)(=O)c3ccc4c(c3)NC(=O)C(C)S4)CC2)c1C", "note": "(stereo not drawn)", "activity change, negative = inhibition": "inconclusive: 9.12%"}, {"smiles": "COc1ccc(CC(=O)NCc2ccc3c(c2)CCN3C(=O)c2ccc(C)cc2)cc1OC", "activity change, negative = inhibition": "inactive"}, {"smiles": "CCOC(=O)c1c(NC(=O)COC(=O)c2ccc(Cl)nc2)sc(C(=O)N(C)C)c1C", "activity change, negative = inhibition": "inconclusive: -3.28%"}, {"smiles": "Cc1c(C(=O)O)oc2c3c(ccc12)OCCO3", "Potency": "inconclusive: 14.6 µM [activator, partial curve]"}, {"smiles": "COc1ccc(CCn2c(N)c(C(=O)NCc3ccco3)c3nc4ccccc4nc32)cc1", "activity change, negative = inhibition": "inconclusive: -8.04%"}, {"smiles": "CCCC(=O)Nc1nn(C)c2nc3cc(C)ccc3cc12", "activity change, negative = inhibition": "inactive"}, {"smiles": "O=c1[nH]cnc2c1sc1nc3c(c(-c4ccc(Cl)cc4)c12)CCC3", "activity change, negative = inhibition": "inconclusive: 16.2%"}, {"smiles": "Oc1cccc(Nc2c3ccccc3nc3ccccc23)c1", "activity change, negative = inhibition": "inconclusive: 1.76%"}, {"smiles": "Cc1cc2nc3c(=O)[nH]c(=S)[nH]c3nc2cc1NC(=O)C(F)(F)F", "activity change, negative = inhibition": "inconclusive: -14.2%"}, {"smiles": "CC1CCCCC1NC(=O)c1ccc(N2CCCC2=O)cc1", "note": "(stereo not drawn)", "Potency": "inconclusive: 18.4 µM [falling, partial curve, poor fit]"}, {"smiles": "COCc1cc(C)n(CC(=O)N2CCCC2)c(=O)c1C#N", "activity change, negative = inhibition": "inactive"}, {"smiles": "O=C(Nc1cccc(C(=O)Nc2ccc(F)cc2F)c1)c1ccccc1", "Potency": "inconclusive: 15.8 µM [falling, single point]"}, {"smiles": "COc1ccc(CNC(=O)C[C@H]2C[C@H](C(=O)N(C(C)C)C(C)C)[C@@]3(C)c4[nH]c5cc(CCC(=O)N(C)C)ccc5c4CCN3C2=O)cc1OC", "activity change, negative = inhibition": "inconclusive: 0.754%"}, {"smiles": "CN1C(=O)C(=O)N(CC(=O)Nc2ccccc2OC(F)F)C1=O", "activity change, negative = inhibition": "inactive"}, {"smiles": "Cc1c(C(=O)Nc2cccnc2)oc2ccc(Br)cc12", "activity change, negative = inhibition": "inconclusive: 2.07%"}, {"smiles": "CCCCN(CC)CCCNC(=O)c1ccc(CSc2nc3ccncc3[nH]2)cc1", "activity change, negative = inhibition": "inconclusive: -20.8%"}, {"smiles": "CCc1cccc2sc(N3CCN(C(=O)c4cc5ccccc5cc4OC)CC3)nc12", "activity change, negative = inhibition": "inactive"}, {"smiles": "Cc1ccc(-n2nnc3c(SCC(=O)NCc4ccco4)ncnc32)cc1", "Potency": "inconclusive: 18.4 µM [falling, partial curve]"}, {"smiles": "O=C(/C=C/c1ccco1)NCC(=O)N/N=C/c1ccc(Cl)cc1", "activity change, negative = inhibition": "inactive"}, {"smiles": "C1COC(NC(C2CC2)C2CC2)=N1", "Potency": "inconclusive: 29.1 µM [falling, single point]"}, {"smiles": "Cn1nnnc1Sc1ncnc2scc(-c3ccc[nH]3)c12", "Potency": "inconclusive: 23.1 µM [falling, single point]"}, {"smiles": "Cc1cc(Cl)ccc1OCCCC(=O)NC1CCN(C)CC1", "activity change, negative = inhibition": "inactive"}, {"smiles": "COC(=O)c1ccccc1NC(=S)NC(=O)C1CC1", "Potency": "inconclusive: 16.4 µM [falling, single point]"}, {"smiles": "O=C(c1ccc(Br)cc1)c1cc([N+](=O)[O-])ccc1N1CCCCC1", "Potency": "inconclusive: 3.98 µM [falling, partial curve]"}, {"smiles": "Cc1cccc(OCc2nc(-c3nonc3N)no2)c1C", "activity change, negative = inhibition": "inconclusive: 7.75%"}, {"smiles": "Nc1ccc2c(c1)sc1ccccc12", "activity change, negative = inhibition": "inconclusive: 3.08%"}, {"smiles": "CCOC(=O)Cc1cc(=O)n2[nH]c(C)c(-c3ccc(OC)cc3)c2n1", "Potency": "inconclusive: 18.4 µM [falling, single point]"}, {"smiles": "COc1ccc2c(c1)c(/C=N/Nc1ccc(C(=O)O)cc1)c(C)n2C", "activity change, negative = inhibition": "inconclusive: 285%"}, {"smiles": "Cn1c(/C=C/c2ccc(Cl)cc2)c([N+](=O)[O-])c(=O)n(C)c1=O", "Potency": "inconclusive: 11.2 µM [falling, partial curve]"}, {"smiles": "Cc1nc(N2CCCCC2)c2c(-c3cccs3)csc2n1", "Potency": "inconclusive: 7.94 µM [rising, partial curve, poor fit]"}, {"smiles": "CC(=O)Nc1cccc(OCC(O)Cn2c(C)nc3ccccc32)c1", "note": "(stereo not drawn)", "activity change, negative = inhibition": "inactive"}, {"smiles": "O=C(O)c1ccc(N/N=C/c2ccc(F)c(F)c2)cc1", "activity change, negative = inhibition": "inconclusive: 291%"}, {"smiles": "FC(F)(F)c1cc(-c2cccs2)nc(-n2cc(Cl)cn2)n1", "Potency": "inconclusive: 32.6 µM [falling, single point]"}, {"smiles": "O=C1CCN(C(=O)c2ccccc2)C2CCCCC12", "note": "(stereo not drawn)", "activity change, negative = inhibition": "inconclusive: 1.72%"}, {"smiles": "CC(C)(C)NC(=O)COC(=O)c1ccccc1NC(=O)c1ccco1", "activity change, negative = inhibition": "inconclusive: -14.5%"}, {"smiles": "CC12CC(c3ccccc3O1)N(C(=O)c1ccco1)C(=S)N2c1ccccc1", "note": "(stereo not drawn)", "Potency": "inconclusive: 25.9 µM [falling, single point]"}, {"smiles": "O=C(Nc1ccc(CN2CCOCC2)cc1)c1ccc(Br)o1", "activity change, negative = inhibition": "inactive"}, {"smiles": "COc1cccc(CC(=O)OCC(=O)N(C)CC(=O)Nc2ccc(Cl)c(C(F)(F)F)c2)c1", "activity change, negative = inhibition": "inconclusive: 3.9%"}, {"smiles": "Nc1ccc(Cc2ccc(N)c(O)c2)cc1O", "activity change, negative = inhibition": "inconclusive: -2.33%"}, {"smiles": "CC1=C(C(=O)Nc2ccc(C)cc2C)C(c2ccc(Cl)cc2)n2nc(C(=O)OC(C)C)nc2N1", "note": "(stereo not drawn)", "activity change, negative = inhibition": "inactive"}, {"smiles": "N#C/C(=C/c1ccc(-c2cc(C(=O)O)cc(C(=O)O)c2)o1)c1nc2ccccc2s1", "Potency": "inconclusive: 12.6 µM [falling, partial curve, poor fit]"}, {"smiles": "Cc1ccc(S(=O)(=O)Nc2ccc(Br)cc2C(NCC(=O)O)c2ccccc2)cc1", "note": "(stereo not drawn)", "activity change, negative = inhibition": "inconclusive: 5.59%"}, {"smiles": "COC(=O)c1ccccc1NC(=O)CSc1nnc(-c2ccc(C)cc2)o1", "Potency": "inconclusive: 8.2 µM [falling, partial curve]"}, {"smiles": "Cc1sc2nc(C3CC3)nc(N3CCN(C(=O)c4ccccc4F)CC3)c2c1C", "activity change, negative = inhibition": "inconclusive: 3.1%"}, {"smiles": "O=C(c1cc(-c2ccc(Br)cc2)nc2ccccc12)N1CCC1", "activity change, negative = inhibition": "inconclusive: 0.266%"}, {"smiles": "Oc1ccc(Br)cc1C=Nc1ccc(Cl)cc1", "Potency": "inconclusive: 2.24 µM [falling, partial curve]"}, {"smiles": "COc1cc(CN(C)c2ccc(S(=O)(=O)N3CCCC3)cn2)ccc1OC(F)F", "activity change, negative = inhibition": "inconclusive: -10.2%"}, {"smiles": "O/N=C/c1ccccc1OCc1ccccc1F", "activity change, negative = inhibition": "inconclusive: 1.26%"}, {"smiles": "Cc1cc(NC(=O)CSc2nc(-c3ccccc3)cs2)no1", "Potency": "inconclusive: 11.6 µM [rising, partial curve, poor fit]"}, {"smiles": "Cc1c(CCC(=O)N2CCC[C@H]2C(=O)O)c(=O)oc2cc3oc4c(c3cc12)CCCC4", "Potency": "inconclusive: 2.82 µM [falling, full curve, poor fit]"}, {"smiles": "C=CCn1c(O)c(N=NC(=O)C(O)c2ccccc2)c2ccccc21", "note": "(stereo not drawn)", "activity change, negative = inhibition": "inactive"}, {"smiles": "CN1CCc2c(sc(NC(=O)c3ccc(S(=O)(=O)N4CCOCC4)cc3)c2C(N)=O)C1", "activity change, negative = inhibition": "inactive"}, {"smiles": "Oc1ccc(-c2nnc(-c3ccc(O)cc3)nn2)cc1", "Potency": "inconclusive: 0.00411 µM [rising, full curve, poor fit]"}, {"smiles": "Cc1cc2occ(CC(=O)N(C)CC(=O)Nc3ccccc3Br)c2cc1C", "activity change, negative = inhibition": "inactive"}, {"smiles": "O=C(CSc1ccc(Cl)cc1)Nc1ccccc1N1CCN(C(=O)c2ccc(Cl)cc2)CC1", "activity change, negative = inhibition": "inconclusive: 7.33%"}, {"smiles": "C(C#CCCCCCCCCC[n+]1ccccc1)#CCCCCCCCCC[n+]1ccccc1", "activity change, negative = inhibition": "inconclusive: 26.3%"}, {"smiles": "CC1=NN(C(=O)c2ccc(Cn3cc(Br)c([N+](=O)[O-])n3)o2)C(O)(C(F)(F)F)C1", "note": "(stereo not drawn)", "activity change, negative = inhibition": "inconclusive: -10.1%"}, {"smiles": "O=[N+]([O-])c1ccc2[nH]c(O)c(N=Nc3ccc(F)cc3)c2c1", "activity change, negative = inhibition": "inactive"}, {"smiles": "CN(C)c1ncccc1-c1nc2ccccc2s1", "Potency": "inconclusive: 3.55 µM [falling, partial curve, poor fit]"}, {"smiles": "CC1(C)CC(=O)C2=C(C1)N(c1ccc(F)cc1)C(=O)CC2c1ccsc1", "note": "(stereo not drawn)", "activity change, negative = inhibition": "inconclusive: -0.269%"}, {"smiles": "CC(=O)c1ccc(N2CCC(c3cc(-c4ccc(Cl)cc4)n[nH]3)CC2)c([N+](=O)[O-])c1", "activity change, negative = inhibition": "inconclusive: 5.52%"}, {"smiles": "CCCOc1ccc(C(=O)Nc2ccc(Cl)cn2)cc1", "activity change, negative = inhibition": "inconclusive: -13.4%"}, {"smiles": "CCN(CC)C(=O)/C(=C/c1cn(S(=O)(=O)N(C)C)c2ccccc12)NC(=O)c1ccc(OC)cc1", "activity change, negative = inhibition": "inactive"}, {"smiles": "CCOc1ccc(S(=O)(=O)N2CCN(C(=O)c3cccn3C)CC2)cc1", "activity change, negative = inhibition": "inconclusive: -11.6%"}, {"smiles": "O=C(Cc1cccc2ccccc12)Nc1ccc(N2CCOCC2)cc1", "activity change, negative = inhibition": "inconclusive: 0.151%"}, {"smiles": "CCc1ccccc1NC(=O)c1ccc(OCc2c(C)noc2C)cc1", "Potency": "inconclusive: 23.1 µM [falling, partial curve, poor fit]"}, {"smiles": "COc1cccc(C(=O)Nc2nnc(S(=O)(=O)Nc3cccc(C)c3)s2)c1", "activity change, negative = inhibition": "inconclusive: 4.07%"}, {"smiles": "CCc1c(C)nc2cc(-c3cccs3)[nH]n2c1=O", "activity change, negative = inhibition": "inconclusive: 9.95%"}, {"smiles": "O=C(NNC1=C(C(=O)C(F)(F)F)CCC1)c1cccnc1", "Potency": "inconclusive: 22.4 µM [falling, single point]"}, {"smiles": "CCN1C=C(Cc2ccc(OC)cc2)C2=C(C1)C(c1ccc(OC)cc1)C(C#N)=C(N)O2", "note": "(stereo not drawn)", "Potency": "inconclusive: 10 µM [falling, partial curve, poor fit]"}, {"smiles": "O=C(CCC(=O)N1CCOCC1)Nc1nnc(C2CCCCC2)s1", "Potency": "inconclusive: 3.26 µM [rising, full curve, poor fit]"}, {"smiles": "O=C(NC[C@@H]1CC[C@@H](Cc2ccc(-c3ccccc3)cc2)O1)Nc1ccc(Br)cc1", "activity change, negative = inhibition": "inconclusive: 12.9%"}, {"smiles": "O=C1CN(C(=O)c2ccccc2F)C(c2ccccc2)c2cc(F)ccc2N1", "note": "(stereo not drawn)", "activity change, negative = inhibition": "inconclusive: -0.0072%"}]}]}
